Taken from: PubChem BioAssay AID652243 (Drosophila RNAi Screening Center, 2013)

Assay: 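Knock-downs that decrease or increase androgen receptor reporter signal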 (primary screen)
Cell system: Drosophila S2R+ cells
Knock-down reagent: long dsRNA against Drosophila genes
Timing: 72 h (48 h, then 24 h hormone)
Conditions: synthetic androgen R1881 at 10 nM for 24 h
Measurement: 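Firefly light from an androgen-responsive reporter and Renilla control light per well, raw and unnormalised, for each of two replicates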
Reading the numbers: firefly reporter light: higher = more light from androgen-responsive reporter; Renilla control light: higher = more constitutive control signal (cell number, transfection)
Hit rule: 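Across duplicate plates, a knock-down whose log firefly/Renilla ratio shifted a set fold down or up from the GFP/LacZ control mean was a hit; the downward cut appears as both 1.5 and 3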
Calls: active = hit: reporter lowered or raised; inactive = no hit
In all, the deposit lists about 24,000 reagents; shown is an unselected part of those with a known target gene and a result. In the full data, 246 (1%) were called active. 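Plates not normalised; calls are printed but the firefly/Renilla ratio behind them is not deposited; fold cut for lowering reported inconsistently.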 Raw values vary from plate to plate and are shown uncorrected. Names joined by + are all predicted targets of the reagent. The record does not give: the amount of reagent.

The opening 4 entries as a preview:
target	dsRNA	firefly reporter light, replicate 1	firefly reporter light, replicate 2	Renilla control light, replicate 1	Renilla control light, replicate 2	Call
Sgs5bis (GeneID 42113)	DRSC16263	3.39e5	2.04e5	4.28e6	2.48e6	inactive
Syt12 (GeneID 32290)	DRSC19359	4.15e5	5.91e5	3.59e6	3.88e6	inactive
CG34307 (GeneID 5740370)	DRSC38659	6.15e5	6.79e5	2.27e6	2.24e6	inactive
CG13999 (GeneID 33826)	DRSC02331	1.48e5	1.99e5	1.00e6	1.32e6	inactive

The list itself, from the first entry:
target	dsRNA	firefly reporter light, replicate 1	firefly reporter light, replicate 2	Renilla control light, replicate 1	Renilla control light, replicate 2	Call
Sgs5bis (GeneID 42113)	DRSC16263	3.39e5	2.04e5	4.28e6	2.48e6	inactive
Syt12 (GeneID 32290)	DRSC19359	4.15e5	5.91e5	3.59e6	3.88e6	inactive
CG34307 (GeneID 5740370)	DRSC38659	6.15e5	6.79e5	2.27e6	2.24e6	inactive
CG13999 (GeneID 33826)	DRSC02331	1.48e5	1.99e5	1.00e6	1.32e6	inactive
CG13999 (GeneID 33826)	DRSC29521	4.25e5	4.14e5	7.65e5	7.65e5	inactive
CG1951 (GeneID 43423)	DRSC15403	1.29e5	1.04e5	8.86e5	6.73e5	inactive
CG1951 (GeneID 43423)	DRSC36957					inactive
CG1951 (GeneID 43423)	DRSC36958					inactive
Nha1 (GeneID 33961)	DRSC02109	6.95e5	1.02e6	1.68e6	1.70e6	inactive
CG17121 (GeneID 42721)	DRSC15176	1.74e5	2.52e5	2.23e6	2.65e6	inactive
lft (GeneID 34405)	DRSC02236	1.25e5	2.13e5	9.44e5	1.79e6	inactive
CG30109 (GeneID 246461)	DRSC05675	4.30e5	5.51e5	6.82e5	6.66e5	inactive
spok (GeneID 5740359)	DRSC37788	9.18e5	4.46e5	2.16e6	1.18e6	inactive
Had2 (GeneID 36624)	DRSC05971	7.48e5	6.77e5	1.84e6	1.77e6	inactive
Had2 (GeneID 36624)	DRSC26955	3.65e5	4.41e5	7.16e5	5.91e5	inactive
CG31525 (GeneID 318782)	DRSC12004	1.88e5	1.69e5	4.75e5	6.36e5	inactive
Appl (GeneID 31002)	DRSC17728	44083	35417	3.24e5	3.63e5	inactive
Appl (GeneID 31002)	DRSC27476	4.73e5	3.92e5	3.93e5	8.37e5	inactive
CG13564 (GeneID 37855)	DRSC04201	3.55e5	3.71e5	2.39e6	2.73e6	inactive
HP1e (GeneID 41108)	DRSC16379	86883	1.01e5	1.77e6	1.68e6	inactive
CG31957 (GeneID 319046)	DRSC00207	2.26e5	82571	4.80e5	2.60e5	inactive
Brca2 (GeneID 37916)	DRSC04219	3.71e5	3.11e5	1.91e6	1.82e6	inactive
Brca2 (GeneID 37916)	DRSC04220	3.79e5	2.77e5	1.86e6	1.35e6	inactive
chp (GeneID 43690)	DRSC16925	71012	42670	6.39e5	3.44e5	inactive
chp (GeneID 43690)	DRSC26106	2.62e5	2.36e5	8.31e5	6.30e5	inactive
CG1394 (GeneID 32059)	DRSC19539	41477	26200	1.31e6	1.49e6	inactive
CG1394 (GeneID 32059)	DRSC25019	7.51e5	8.48e5	8.88e5	9.33e5	inactive
laza (GeneID 40468)	DRSC11661	55859	61441	5.48e5	4.98e5	inactive
laza (GeneID 40468)	DRSC23330	6.33e5	6.88e5	1.47e6	1.47e6	inactive
laza (GeneID 40468)	DRSC29129	6.81e5	6.06e5	1.18e6	9.09e5	inactive
Chd64 (GeneID 38490)	DRSC08649	1.19e6	9.06e5	1.05e6	8.12e5	inactive
Chd64 (GeneID 38490)	DRSC28823	3.92e5	3.19e5	1.37e6	1.45e6	inactive
jim (GeneID 43924)	DRSC11889	42938	54958	4.39e5	4.82e5	inactive
jim (GeneID 43924)	DRSC23829	2.29e5	2.91e5	4.13e5	3.91e5	inactive
CG8677 (GeneID 35397)	DRSC03107	4.99e5	4.96e5	2.53e6	2.03e6	active
CG8677 (GeneID 35397)	DRSC23559	8.47e5	8.55e5	9.29e5	9.08e5	inactive
CG11983 (GeneID 41081)	DRSC14458	1.52e5	1.73e5	3.32e6	3.18e6	inactive
AnxB11 (GeneID 32612)	DRSC19331	50089	41922	4.31e5	4.44e5	inactive
AnxB11 (GeneID 32612)	DRSC26479	1.35e5	1.07e5	2.18e5	1.34e5	inactive
CG17707 (GeneID 5740408)	DRSC20650	2.05e5	2.20e5	5.74e5	5.51e5	inactive
Andorra (GeneID 32798)	DRSC19475	6.07e5	6.92e5	2.70e6	3.24e6	inactive
Srlp (GeneID 41533)	DRSC15890	1.31e5	1.73e5	1.56e6	2.02e6	inactive
CG11693 (GeneID 40984)	DRSC14353	66952	61082	1.19e6	1.18e6	inactive
CG11693 (GeneID 40984)	DRSC28503	5.02e5	6.00e5	9.76e5	1.18e6	inactive
CG9547 (GeneID 33911)	DRSC03260	7.00e5	9.57e5	1.43e6	1.40e6	inactive
CG9547 (GeneID 33911)	DRSC27269	2.37e5	2.99e5	5.58e5	5.88e5	inactive
TMEM216 + CG11760	DRSC14375	1.55e5	1.19e5	1.07e6	1.27e6	inactive
SmydA-8 (GeneID 31200)	DRSC22064	1.01e6	8.20e5	1.73e6	1.64e6	inactive
SmydA-8 (GeneID 31200)	DRSC22263	4.71e5	4.41e5	1.72e6	1.59e6	inactive
Pi4KIIalpha (GeneID 40670)	DRSC12322	46285	45974	3.47e5	3.96e5	inactive
Pi4KIIalpha (GeneID 40670)	DRSC12323	83206	63821	2.03e6	1.57e6	active
Pi4KIIalpha (GeneID 40670)	DRSC29095	3.97e5	6.88e5	1.27e6	1.38e6	inactive
Pi4KIIalpha (GeneID 40670)	DRSC36914					inactive
CG12909 (GeneID 36087)	DRSC06224	2.52e5	1.68e5	1.32e6	1.07e6	inactive
CG12909 (GeneID 36087)	DRSC27706	3.56e5	3.62e5	5.10e5	5.62e5	inactive
Ubc84D (GeneID 40900)	DRSC12610	1.12e5	1.55e5	2.05e6	2.12e6	inactive
Ubc84D (GeneID 40900)	DRSC25384	7.56e5	5.63e5	1.99e6	7.77e5	inactive
E(spl)m8-HLH (GeneID 43161)	DRSC16654	1.87e5	2.12e5	2.22e6	2.09e6	inactive
E(spl)m8-HLH (GeneID 43161)	DRSC28065	3.86e5	4.47e5	1.46e6	1.20e6	inactive
CG15922 (GeneID 50048)	DRSC15128	2.06e5	2.55e5	3.53e6	3.52e6	inactive
CG11585 (GeneID 32365)	DRSC19410	2.25e5	3.18e5	3.23e6	2.89e6	inactive
CG11585 (GeneID 32365)	DRSC27386	2.19e5	2.24e5	7.15e5	4.69e5	inactive
dpr4 (GeneID 3346160)	DRSC14531	2.12e5	2.26e5	2.65e6	2.46e6	inactive
dpr4 (GeneID 3346160)	DRSC14929	2.81e5	1.92e5	2.70e6	2.34e6	inactive
Zip102B (GeneID 43786)	DRSC17155	6.11e5	1.07e6	1.35e6	2.36e6	inactive
Zip102B (GeneID 43786)	DRSC26001	5.80e5	6.11e5	1.10e6	9.14e5	inactive
PLCXD (GeneID 34623)	DRSC02427	4.59e5	5.78e5	2.21e6	2.56e6	inactive
CG10011 (GeneID 43387)	DRSC14174	1.10e5	83034	6.32e5	3.75e5	inactive
Aladin (GeneID 31881)	DRSC18121	1.32e5	97757	8.44e5	8.25e5	inactive
Aladin (GeneID 31881)	DRSC29497	8.47e5	1.12e6	1.71e6	1.71e6	inactive
Ncoa6 (GeneID 33761)	DRSC23060	5.76e5	8.70e5	1.27e6	1.84e6	inactive
Ncoa6 (GeneID 33761)	DRSC25819	2.00e5	2.13e5	4.29e5	3.91e5	inactive
Cht10 (GeneID 3355116)	DRSC03766	8.47e5	6.97e5	1.55e6	1.47e6	inactive
Cht10 (GeneID 3355116)	DRSC03767	3.02e5	2.36e5	1.94e6	2.07e6	inactive
Cht10 (GeneID 3355116)	DRSC03768	2.13e5	2.81e5	1.34e6	1.28e6	inactive
